Assay results published in the supplement of paper PMC10849652.
This is one part of the list.

The chains behind the UniProt entries cited, without tags or fusion partners. Where a name states a change or a piece, a line headed by the entry shows the natural chain unless it says otherwise.
UniProt Q9UMF0: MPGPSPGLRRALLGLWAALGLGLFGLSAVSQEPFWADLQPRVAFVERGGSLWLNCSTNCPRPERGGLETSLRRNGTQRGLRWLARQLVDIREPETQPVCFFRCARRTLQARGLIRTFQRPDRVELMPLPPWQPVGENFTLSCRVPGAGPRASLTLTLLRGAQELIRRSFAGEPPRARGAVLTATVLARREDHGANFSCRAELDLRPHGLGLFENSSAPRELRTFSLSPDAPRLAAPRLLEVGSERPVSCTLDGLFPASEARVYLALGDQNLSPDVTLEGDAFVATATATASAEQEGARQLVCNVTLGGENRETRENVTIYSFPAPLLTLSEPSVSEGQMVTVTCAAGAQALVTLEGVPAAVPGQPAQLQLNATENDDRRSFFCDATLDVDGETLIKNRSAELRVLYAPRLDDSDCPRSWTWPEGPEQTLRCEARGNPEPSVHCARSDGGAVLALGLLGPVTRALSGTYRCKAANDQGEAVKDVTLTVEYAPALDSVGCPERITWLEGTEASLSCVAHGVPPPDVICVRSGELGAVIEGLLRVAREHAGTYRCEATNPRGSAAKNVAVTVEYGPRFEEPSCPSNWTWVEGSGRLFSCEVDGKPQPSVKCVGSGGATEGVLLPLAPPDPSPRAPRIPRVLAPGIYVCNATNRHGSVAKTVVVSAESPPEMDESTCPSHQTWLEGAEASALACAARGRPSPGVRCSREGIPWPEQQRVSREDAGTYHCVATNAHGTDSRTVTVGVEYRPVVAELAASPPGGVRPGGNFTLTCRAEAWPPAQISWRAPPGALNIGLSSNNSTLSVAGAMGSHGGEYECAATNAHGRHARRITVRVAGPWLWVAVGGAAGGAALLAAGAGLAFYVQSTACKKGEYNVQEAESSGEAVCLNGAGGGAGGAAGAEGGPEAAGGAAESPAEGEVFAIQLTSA
UniProt Q27J81, whole entry, looked up: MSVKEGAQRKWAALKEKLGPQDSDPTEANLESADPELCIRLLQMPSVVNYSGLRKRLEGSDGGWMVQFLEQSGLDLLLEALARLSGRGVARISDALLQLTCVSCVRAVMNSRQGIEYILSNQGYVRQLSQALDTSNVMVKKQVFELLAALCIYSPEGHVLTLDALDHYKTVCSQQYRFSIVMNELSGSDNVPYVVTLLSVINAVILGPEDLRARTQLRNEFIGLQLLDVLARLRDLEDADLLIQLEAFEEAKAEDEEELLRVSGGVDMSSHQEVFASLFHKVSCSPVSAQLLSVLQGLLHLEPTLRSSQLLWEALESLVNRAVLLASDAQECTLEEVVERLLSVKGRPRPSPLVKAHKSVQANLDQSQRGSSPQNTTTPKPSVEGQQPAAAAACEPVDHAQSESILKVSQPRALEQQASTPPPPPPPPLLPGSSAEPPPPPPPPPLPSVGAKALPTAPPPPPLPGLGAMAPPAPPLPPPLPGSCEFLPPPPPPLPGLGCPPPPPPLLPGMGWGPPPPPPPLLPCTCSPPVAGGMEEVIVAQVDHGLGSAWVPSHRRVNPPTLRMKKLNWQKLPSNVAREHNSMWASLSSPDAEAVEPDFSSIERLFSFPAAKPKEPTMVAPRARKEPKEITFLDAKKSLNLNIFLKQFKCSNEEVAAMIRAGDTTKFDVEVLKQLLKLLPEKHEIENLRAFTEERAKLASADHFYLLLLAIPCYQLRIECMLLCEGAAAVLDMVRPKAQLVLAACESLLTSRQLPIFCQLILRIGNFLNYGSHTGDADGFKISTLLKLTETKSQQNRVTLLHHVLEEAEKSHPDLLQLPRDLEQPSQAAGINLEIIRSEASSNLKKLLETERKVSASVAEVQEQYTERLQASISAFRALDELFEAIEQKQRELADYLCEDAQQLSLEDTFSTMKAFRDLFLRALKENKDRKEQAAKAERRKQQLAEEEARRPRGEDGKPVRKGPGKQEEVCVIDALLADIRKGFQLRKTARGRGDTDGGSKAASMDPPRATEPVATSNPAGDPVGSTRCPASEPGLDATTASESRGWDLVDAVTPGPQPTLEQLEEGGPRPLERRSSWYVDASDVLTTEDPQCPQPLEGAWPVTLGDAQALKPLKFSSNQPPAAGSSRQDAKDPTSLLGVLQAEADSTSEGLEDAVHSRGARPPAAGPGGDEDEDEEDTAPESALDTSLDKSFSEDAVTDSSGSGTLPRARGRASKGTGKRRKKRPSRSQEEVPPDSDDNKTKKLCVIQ
UniProt Q5TA45, whole entry, looked up: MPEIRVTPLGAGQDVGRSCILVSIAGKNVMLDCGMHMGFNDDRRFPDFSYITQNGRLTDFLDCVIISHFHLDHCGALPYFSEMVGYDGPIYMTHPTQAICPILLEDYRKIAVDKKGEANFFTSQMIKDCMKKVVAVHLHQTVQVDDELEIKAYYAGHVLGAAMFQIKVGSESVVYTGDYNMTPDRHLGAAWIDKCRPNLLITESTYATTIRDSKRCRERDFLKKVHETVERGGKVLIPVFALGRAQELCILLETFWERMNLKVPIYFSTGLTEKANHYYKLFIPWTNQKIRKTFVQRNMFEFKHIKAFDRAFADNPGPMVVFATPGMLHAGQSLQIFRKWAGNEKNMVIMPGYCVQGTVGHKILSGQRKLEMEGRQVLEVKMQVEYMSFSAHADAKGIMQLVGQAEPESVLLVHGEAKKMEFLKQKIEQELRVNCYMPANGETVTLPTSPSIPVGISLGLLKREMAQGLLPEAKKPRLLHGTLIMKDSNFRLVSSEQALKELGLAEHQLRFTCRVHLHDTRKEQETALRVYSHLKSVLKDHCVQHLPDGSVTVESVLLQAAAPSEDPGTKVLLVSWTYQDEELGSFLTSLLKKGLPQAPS
UniProt Q13422: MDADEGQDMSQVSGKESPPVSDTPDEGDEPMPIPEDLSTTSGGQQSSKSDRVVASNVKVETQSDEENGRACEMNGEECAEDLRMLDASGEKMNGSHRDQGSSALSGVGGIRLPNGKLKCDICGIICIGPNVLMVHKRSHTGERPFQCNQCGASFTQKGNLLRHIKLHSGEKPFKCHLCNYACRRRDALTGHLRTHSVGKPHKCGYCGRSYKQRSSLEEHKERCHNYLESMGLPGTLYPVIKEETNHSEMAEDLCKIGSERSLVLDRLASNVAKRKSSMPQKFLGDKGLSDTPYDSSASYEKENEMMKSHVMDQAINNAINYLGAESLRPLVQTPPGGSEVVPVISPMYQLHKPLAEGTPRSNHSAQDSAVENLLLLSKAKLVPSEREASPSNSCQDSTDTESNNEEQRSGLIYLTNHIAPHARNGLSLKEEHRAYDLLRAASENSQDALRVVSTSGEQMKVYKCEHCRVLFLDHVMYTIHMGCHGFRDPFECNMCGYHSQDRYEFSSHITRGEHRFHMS
UniProt Q05084: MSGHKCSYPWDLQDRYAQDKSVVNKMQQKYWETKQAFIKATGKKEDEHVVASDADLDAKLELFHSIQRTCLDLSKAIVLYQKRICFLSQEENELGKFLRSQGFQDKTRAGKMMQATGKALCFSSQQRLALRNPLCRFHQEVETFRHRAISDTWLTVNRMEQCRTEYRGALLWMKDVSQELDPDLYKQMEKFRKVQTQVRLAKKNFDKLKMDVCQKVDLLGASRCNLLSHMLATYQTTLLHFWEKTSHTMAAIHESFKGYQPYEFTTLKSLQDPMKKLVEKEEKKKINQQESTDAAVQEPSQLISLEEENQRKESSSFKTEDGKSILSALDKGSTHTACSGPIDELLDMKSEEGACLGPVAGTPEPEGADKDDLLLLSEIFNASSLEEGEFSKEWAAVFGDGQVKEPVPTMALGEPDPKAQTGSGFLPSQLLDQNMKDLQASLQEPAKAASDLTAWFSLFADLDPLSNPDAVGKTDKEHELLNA
UniProt Q9P2X3: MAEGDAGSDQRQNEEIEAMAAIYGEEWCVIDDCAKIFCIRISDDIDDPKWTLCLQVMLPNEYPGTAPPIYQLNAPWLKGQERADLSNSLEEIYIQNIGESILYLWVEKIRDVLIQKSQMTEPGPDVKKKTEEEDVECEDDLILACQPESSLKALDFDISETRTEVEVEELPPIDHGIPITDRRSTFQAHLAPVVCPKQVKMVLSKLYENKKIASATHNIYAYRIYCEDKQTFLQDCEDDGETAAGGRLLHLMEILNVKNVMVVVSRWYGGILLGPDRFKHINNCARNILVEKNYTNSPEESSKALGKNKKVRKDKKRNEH
UniProt P11717, whole entry, looked up: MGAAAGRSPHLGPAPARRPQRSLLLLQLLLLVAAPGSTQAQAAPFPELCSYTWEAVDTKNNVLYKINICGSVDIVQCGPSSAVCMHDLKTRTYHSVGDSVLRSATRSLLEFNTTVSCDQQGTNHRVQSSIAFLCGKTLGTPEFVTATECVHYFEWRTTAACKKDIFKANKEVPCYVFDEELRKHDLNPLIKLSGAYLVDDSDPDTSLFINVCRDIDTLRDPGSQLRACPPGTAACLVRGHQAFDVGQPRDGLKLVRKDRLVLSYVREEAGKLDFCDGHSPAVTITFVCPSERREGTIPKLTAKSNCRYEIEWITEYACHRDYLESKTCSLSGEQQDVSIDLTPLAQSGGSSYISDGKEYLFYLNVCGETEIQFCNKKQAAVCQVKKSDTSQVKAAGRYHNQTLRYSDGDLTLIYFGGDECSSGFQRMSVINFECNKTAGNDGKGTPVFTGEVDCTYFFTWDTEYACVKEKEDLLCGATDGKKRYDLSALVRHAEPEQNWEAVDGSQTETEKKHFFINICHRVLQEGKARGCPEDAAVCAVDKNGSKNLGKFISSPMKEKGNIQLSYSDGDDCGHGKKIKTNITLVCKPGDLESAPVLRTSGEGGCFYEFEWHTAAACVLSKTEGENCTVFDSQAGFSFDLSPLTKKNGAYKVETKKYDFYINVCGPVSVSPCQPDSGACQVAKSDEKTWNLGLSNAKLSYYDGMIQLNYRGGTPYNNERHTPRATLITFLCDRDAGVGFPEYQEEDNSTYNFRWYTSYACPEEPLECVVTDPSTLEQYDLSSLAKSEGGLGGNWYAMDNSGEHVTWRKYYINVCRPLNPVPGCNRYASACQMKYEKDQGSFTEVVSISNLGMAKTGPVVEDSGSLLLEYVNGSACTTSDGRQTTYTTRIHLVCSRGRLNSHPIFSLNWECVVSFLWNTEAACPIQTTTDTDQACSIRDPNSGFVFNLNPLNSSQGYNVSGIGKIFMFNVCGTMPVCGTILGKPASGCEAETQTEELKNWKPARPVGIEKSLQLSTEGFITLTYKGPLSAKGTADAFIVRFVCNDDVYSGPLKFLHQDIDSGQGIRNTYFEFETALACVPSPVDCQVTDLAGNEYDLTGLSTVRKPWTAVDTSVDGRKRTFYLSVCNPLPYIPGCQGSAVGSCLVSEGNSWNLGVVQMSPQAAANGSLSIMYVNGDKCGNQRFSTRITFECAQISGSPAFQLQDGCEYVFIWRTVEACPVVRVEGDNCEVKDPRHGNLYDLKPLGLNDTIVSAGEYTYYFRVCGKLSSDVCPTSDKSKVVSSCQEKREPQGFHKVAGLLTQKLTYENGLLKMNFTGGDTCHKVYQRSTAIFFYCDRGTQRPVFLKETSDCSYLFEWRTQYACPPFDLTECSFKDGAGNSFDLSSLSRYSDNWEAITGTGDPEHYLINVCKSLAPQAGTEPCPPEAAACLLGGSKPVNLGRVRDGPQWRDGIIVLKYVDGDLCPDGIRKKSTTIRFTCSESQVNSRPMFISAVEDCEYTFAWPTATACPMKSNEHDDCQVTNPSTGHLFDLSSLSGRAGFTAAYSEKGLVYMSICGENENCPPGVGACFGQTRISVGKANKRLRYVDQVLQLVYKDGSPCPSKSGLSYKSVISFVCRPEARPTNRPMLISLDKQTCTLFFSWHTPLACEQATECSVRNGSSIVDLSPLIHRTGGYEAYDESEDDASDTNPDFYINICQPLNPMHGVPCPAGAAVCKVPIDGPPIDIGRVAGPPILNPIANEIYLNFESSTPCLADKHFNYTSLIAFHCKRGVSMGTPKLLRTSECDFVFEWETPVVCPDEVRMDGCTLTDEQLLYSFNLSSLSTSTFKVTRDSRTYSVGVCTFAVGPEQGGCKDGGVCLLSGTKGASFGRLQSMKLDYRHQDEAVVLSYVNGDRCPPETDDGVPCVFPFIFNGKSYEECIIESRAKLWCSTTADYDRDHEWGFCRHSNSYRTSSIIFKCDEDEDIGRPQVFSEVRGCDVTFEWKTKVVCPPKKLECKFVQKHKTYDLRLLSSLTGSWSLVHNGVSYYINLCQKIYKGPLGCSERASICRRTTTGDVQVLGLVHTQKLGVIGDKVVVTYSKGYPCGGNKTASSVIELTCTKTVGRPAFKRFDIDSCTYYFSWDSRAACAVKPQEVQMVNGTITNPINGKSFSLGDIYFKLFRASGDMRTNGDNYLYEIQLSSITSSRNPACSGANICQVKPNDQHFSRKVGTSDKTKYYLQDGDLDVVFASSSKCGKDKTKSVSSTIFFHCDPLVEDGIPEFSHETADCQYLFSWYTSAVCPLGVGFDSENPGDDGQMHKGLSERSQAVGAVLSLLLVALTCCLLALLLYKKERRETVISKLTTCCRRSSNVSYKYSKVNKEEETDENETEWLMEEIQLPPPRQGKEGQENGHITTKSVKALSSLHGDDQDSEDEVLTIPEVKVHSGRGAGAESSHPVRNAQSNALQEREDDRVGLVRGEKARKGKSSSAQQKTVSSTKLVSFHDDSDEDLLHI

Experiments:
Assay in all cases: log2 fold change, soluble protein after heating vs DMSO (PISA); higher = thermal stabilisation; K562 lysate, 10 uM; active = over 0.2 and 3.5 SD of the protein, either way, in both replicates (recomputed)
[1] = compound: C#Cc1cccc(Nc2ncnc3cc(OCCOC)c(OCCOC)cc23)c1 [erlotinib]
In short: (§1)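 Soluble protein was defined as the supernatant remaining after 21,000xg for 90 min, following pooling of heated aliquots and adjustment to 0.5% NP-40 at 4°C. Before that, crude K562 extract at 1 mg/mL protein in PBS pH 7.4 with 1 mM MgCl2 was treated with 10 μM compound for 30 min and heated for 3 min across 48°C-58°C. Quantification used TMTpro 16plex LC-MS/MS with channel sums equalised, and values are log-two fold changes in thermal stability relative to solvent controls from duplicates.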

[2] = compound: C/C(=N\NC(=O)C1=CC(=CC=C1)S(=O)(=O)N2CCOCC2)/C3=C(C=CC(=C3)Cl)O
In short: as §1

[3] = compound: C1=CC(=CC=C1C2=NC3=C(N2)C=C(C=C3)C(=O)N)OC4=CC=C(C=C4)Cl
In short: as §1

[4] = compound: C1=CC2=C(C=CC(=C2)/C=C\3/C(=O)NC(=NCC4=CC=CS4)S3)N=C1
In short: as §1

[5] = compound: C1=CC2=NC=CN=C2C=C1/C=C/3\C(=O)NC(=O)S3
In short: as §1

[6] = compound: C1=CC=C(C=C1)C2=NC(=C(N2)C3=CC=NC=C3)C4=CC(=C(C=C4)Cl)O
In short: as §1

[7] = compound: C1=CC=C2C(=C1)C3=NNC4=CC=CC(=C43)C2=O
In short: as §1

[8] = compound: C1CCN(C1)C(=O)NC2=CC=CC(=C2)NC3=NC=C(C(=N3)NCCC4=CN=CN4)Br
In short: as §1

[9] = compound: C1CN(CCC1(CC2=CC=C(C=C2)Cl)N)C3=NC=NC4=C3C=CN4
In short: as §1

[10] = compound: C1COCCN1CCN2C3=CC=CC=C3N=C2NC(=O)C4=CC(=CC=C4)[N+](=O)[O-] [IRAK-1-4 Inhibitor I]
In short: as §1

[11] = compound: C=CC(=O)N1CCC[C@@H](n2nc(-c3ccc(Oc4ccccc4)cc3)c3c(N)ncnc32)C1 [ibrutinib]
In short: as §1

[12] = compound: CC(=O)c1cnc2ccc(-c3cc(Cl)c(O)c(Cl)c3)nc2c1N[C@H]1CC[C@H](CN(C)C)CC1
In short: as §1

[13] = compound: CC(C)(C)Cn1c(N)nc2ccc(-c3[nH]c(C(C)(C)C)nc3-c3ccc(F)cc3)nc21 [ralimetinib]
In short: as §1

[14] = compound: CC(C)(O)CC(=O)NCCn1ccc2ncnc(Nc3ccc(Oc4cccc(C(F)(F)F)c4)c(Cl)c3)c21
In short: as §1

[15] = compound: CC(C)C1=C2N=C(C=C(N2N=C1)NCC3=CC=CC=C3)NCCCCCCN
In short: as §1

[16] = compound: CC1=C(C(CC(=O)N1)C2=CC=C(C=C2)C(F)(F)F)C(=O)NC3=C(C=C4C(=C3)C=NN4)F
In short: as §1

[17] = compound: CC1=C(C2=C(C=C1)C(=O)C3=CC=CC=C3N2CCCN)C
In short: as §1

[18] = compound: CC1=C(C=C(C=C1)NC(=O)C2=CC(=CC=C2)C(C)(C)C#N)NC3=CC4=C(C=C3)N=CN(C4=O)C
In short: as §1

[19] = compound: CC1=C(C=C(C=C1)NC(=O)C2=CC(=CC=C2)N(C)C)NC(=O)C3=CC=C(C=C3)O
In short: as §1

[20] = compound: CC1=CC=C(C=C1)SC2=C3C=C(SC3=CN=C2)C(=O)N
In short: as §1

Measured: log2 fold change

IKBKG isoform 2 (UniProt Q9Y6K9)
inactive: [1] -0.035 | [2] -0.007 | [3] 0.019 | [4] -0.059 | [5] -0.006 | [6] -0.047 | [7] -0.011 | [8] -0.007 | [9] 0.036 | [10] -0.02 | [11] 0.03 | [12] -0.011 | [13] 0.043 | [14] -0.016 | [15] -0.023 | [16] 0.004 | [17] -0.049 | [18] 0.002 | [19] 0.002 | [20] -0.019

ICAM5 (UniProt Q9UMF0)
inactive: [1] 0.043 | [2] -0.008 | [3] 0.071 | [4] -0.088 | [5] 0.022 | [6] 0.06 | [7] 0.062 | [8] -0.032 | [9] 0.049 | [10] 0.067 | [11] 0.013 | [12] -0.01 | [13] -0.127 | [14] -0.196 | [15] -0.034 | [16] -0.001 | [17] -0.062 | [18] -0.015 | [19] -0.049 | [20] -0.105

INF2 (UniProt Q27J81)
inactive: [1] 0.004 | [2] -0.014 | [3] -0.027 | [4] 0.069 | [5] 0.004 | [6] -0.024 | [7] -0.019 | [8] 0.031 | [9] 0.056 | [10] -0.011 | [11] 0.036 | [12] -0.007 | [13] 0.018 | [14] 0.049 | [15] -0.012 | [16] 0.004 | [17] 0.07 | [18] -0.004 | [19] -0.027 | [20] -0.015

INTS11 (UniProt Q5TA45)
inactive: [1] -0.01 | [2] 0.013 | [3] 0.002 | [4] 0.026 | [5] 0.021 | [6] -0.016 | [7] -0.028 | [8] 0.01 | [9] 0.051 | [10] 0.03 | [11] 0.01 | [12] -0.006 | [13] -0.03 | [14] 0.009 | [15] -0.017 | [16] -0.014 | [17] -0.006 | [18] -0.034 | [19] 0.006 | [20] 0.018

Copied from the entries so far (2 entries):
IKBKG isoform 2 (UniProt Q9Y6K9)
inactive: [1] -0.035 | [2] -0.007 | [3] 0.019 | [4] -0.059 | [5] -0.006 | [6] -0.047 | [7] -0.011 | [8] -0.007 | [9] 0.036 | [10] -0.02 | [11] 0.03 | [12] -0.011 | [13] 0.043 | [14] -0.016 | [15] -0.023 | [16] 0.004 | [17] -0.049 | [18] 0.002 | [19] 0.002 | [20] -0.019

ICAM5 (UniProt Q9UMF0)
inactive: [1] 0.043 | [2] -0.008 | [3] 0.071 | [4] -0.088 | [5] 0.022 | [6] 0.06 | [7] 0.062 | [8] -0.032 | [9] 0.049 | [10] 0.067 | [11] 0.013 | [12] -0.01 | [13] -0.127 | [14] -0.196 | [15] -0.034 | [16] -0.001 | [17] -0.062 | [18] -0.015 | [19] -0.049 | [20] -0.105

Additional records follow.

IFRD1 (UniProt O00458)
inactive: [1] -0.047 | [2] 0.076 | [3] -0.075 | [4] 0.046 | [5] -0.016 | [6] -0.015 | [7] 0.064 | [8] 0.024 | [9] -0.048 | [10] -0.015 | [11] -0.082 | [12] 0.018 | [13] 0.029 | [14] -0.044 | [15] -0.114 | [16] 0 | [17] -0.028 | [18] -0.004 | [19] 0.032 | [20] 0

IKZF1 (UniProt Q13422)
inactive: [1] -0.06 | [2] 0.084 | [3] -0.018 | [4] -0.093 | [5] 0.021 | [6] 0.03 | [7] 0.112 | [8] 0.045 | [9] -0.031 | [10] 0.028 | [11] 0.049 | [12] -0.008 | [13] -0.026 | [14] -0.038 | [15] 0.016 | [16] 0.072 | [17] -0.061 | [18] 0.012 | [19] 0.01 | [20] -0.023

ICA1 (UniProt Q05084)
inactive: [1] -0.012 | [2] -0.012 | [3] -0.014 | [4] -0.035 | [5] -0.043 | [6] 0.003 | [7] -0.013 | [8] -0.014 | [9] 0.033 | [10] 0.003 | [11] -0.029 | [12] -0.037 | [13] -0.004 | [14] -0.024 | [15] 0.052 | [16] -0.016 | [17] 0 | [18] 0.008 | [19] -0.004 | [20] -0.02

HTRA2 (UniProt O43464)
inactive: [1] -0.006 | [2] 0.111 | [3] 0.028 | [4] -0.02 | [5] 0.011 | [6] -0.017 | [7] -0.037 | [8] -0.004 | [9] 0.012 | [10] 0.016 | [11] 0.041 | [12] -0.008 | [13] 0.015 | [14] -0.017 | [15] -0.05 | [16] -0.008 | [17] -0.04 | [18] 0.032 | [19] -0.014 | [20] -0.022

HSPA8 (UniProt E9PK54)
inactive: [1] 0.045 | [2] -0.222 | [3] -0.045 | [4] -0.099 | [5] 0.014 | [6] -0.044 | [7] 0 | [8] -0.043 | [9] -0.008 | [10] -0.141 | [11] 0.065 | [12] -0.086 | [13] -0.013 | [14] -0.132 | [15] 0.004 | [16] -0.019 | [17] 0.008 | [18] -0.076 | [19] -0.019 | [20] 0.014

IARS (UniProt P41252)
inactive: [1] 0.022 | [2] 0.061 | [3] -0.011 | [4] 0.013 | [5] 0.02 | [6] 0.006 | [7] -0.035 | [8] 0.006 | [9] 0.01 | [10] -0.006 | [11] -0.015 | [12] -0.001 | [13] 0.037 | [14] 0.035 | [15] 0.029 | [16] -0.016 | [17] 0.012 | [18] -0.04 | [19] 0.05 | [20] 0.029

IMPACT (UniProt Q9P2X3)
inactive: [1] -0.03 | [2] 0.13 | [3] 0.014 | [4] 0.083 | [5] 0.043 | [6] 0.056 | [7] 0.001 | [8] 0.06 | [9] -0.082 | [10] -0.076 | [11] -0.19 | [12] -0.075 | [13] 0.061 | [14] 0.001 | [15] -0.065 | [16] 0.289 | [17] 0.034 | [18] 0.146 | [19] 0.14 | [20] -0.052

IGF2R (UniProt P11717)
inactive: [1] -0.026 | [2] -0.009 | [3] 0.022 | [4] 0.019 | [5] -0.025 | [6] 0.021 | [7] -0.007 | [8] 0.003 | [9] -0.002 | [10] 0.011 | [11] 0.003 | [12] -0.003 | [13] 0.015 | [14] -0.013 | [15] -0.022 | [16] 0.032 | [17] -0.008 | [18] -0.014 | [19] -0.011 | [20] -0.015

IMMT (UniProt Q16891)
inactive: [1] 0.008 | [2] 0.058 | [3] -0.176 | [4] 0.035 | [5] 0.024 | [6] -0.001 | [7] -0.031 | [8] 0.016 | [9] -0.026 | [10] -0.007 | [11] -0.015 | [12] 0.006 | [13] -0.018 | [14] -0.045 | [15] -0.017 | [16] -0.007 | [17] 0.038 | [18] 0.003 | [19] 0.011 | [20] 0.031

HSPD1 (UniProt P10809)
inactive: [1] 0 | [2] 0.047 | [3] 0.009 | [4] -0.022 | [5] 0.003 | [6] 0.007 | [7] 0.01 | [8] -0.006 | [9] 0 | [10] 0.006 | [11] -0.008 | [12] -0.005 | [13] -0.03 | [14] -0.002 | [15] 0.016 | [16] -0.027 | [17] -0.012 | [18] -0.006 | [19] -0.013 | [20] -0.006

IMPDH2 (UniProt P12268)
inactive: [1] 0.001 | [2] -0.009 | [3] -0.018 | [4] -0.018 | [5] -0.013 | [6] -0.028 | [7] -0.003 | [8] 0.019 | [9] -0.003 | [10] 0.011 | [11] 0.049 | [12] -0.003 | [13] 0.034 | [14] 0.028 | [15] 0.025 | [16] -0.034 | [17] 0.019 | [18] 0.017 | [19] -0.006 | [20] 0.016

IDH3G (UniProt P51553)
inactive: [1] -0.037 | [2] -0.056 | [3] 0.013 | [4] 0 | [5] -0.007 | [6] -0.098 | [7] 0.06 | [8] -0.029 | [9] -0.006 | [10] 0.032 | [11] -0.009 | [12] -0.029 | [13] 0.022 | [14] -0.03 | [15] -0.014 | [16] -0.042 | [17] -0.005 | [18] 0.026 | [19] -0.029 | [20] 0.022
